In PubChem BioAssay AID328 (DTP/NCI, 2004):
The list does not hold the whole screen: it gathers tests that were run many times, whatever their T/C, doses with no T/C, and many T/C values between a quarter and a half above the control. Further doses and runs are listed elsewhere. T/C gives the treated animals as a percentage of the vehicle group. Some doses have a count of surviving animals in place of a T/C: the source holds a T/C of zero for them, seemingly a mark for toxic or unscored doses. Some doses without a T/C left all or most animals alive at the check, yet need not have been tolerated: survival well below the control is almost never listed, so the zero probably covers shortened survival too. Survivors were counted at the toxicity check, usually on the fifth day, unless a day is given; later deaths do not show. Schedules are NCI's codes, read here as Q, the interval in days (D) or hours (H), X, the number of doses. Some entries hold several experiments; their values stand side by side, smallest first. Brackets with × say how often a value occurs here. For survival time, this PubChem deposit counts one and a half times the control or more as active, and values a quarter to a half above the control carry no call in these data; other NCI protocols may use other cut-offs. Some T/C values carry the count of animals alive at the toxicity check (mostly the fifth day); where none is given, no animal had died by that day.

Test system: BDF1 mice, P388 leukemia ip, median survival T/C
Experiment: NCI In Vivo Anticancer Drug Screen. Data for tumor model P388 Leukemia (intraperitoneal) in B6D2F1 (BDF1) mice
Conditions: T/C endpoint: median survival time, higher T/C = longer survival
Method: The antitumor activity of compounds was measured in mice bearing transplantable tumors. Survival or tumor size were measured and the results are expressed as the measurement made in the treated group (T) divided by the measurement made in the vehicle treated control group (C). The tumor model used in this assay is P388 Leukemia (intraperitoneal) in B6D2F1 (BDF1) mice

[1] = dose: 100.0 mg/kg/injection, schedule: Q01DX009 (ip), vehicle: Klucel (hydroxypropylcellulose) (HPC)
[2] = dose: 240.0 mg/kg/injection, schedule: Q01DX010 (ip), vehicle: saline
[3] = dose: 400.0 mg/kg/injection, schedule: Q01DX001 (ip), vehicle: Klucel (hydroxypropylcellulose) (HPC)

CC(CN1CC(=O)NC(=O)C1)N1CC(=O)NC(=O)C1 (stereo not given)
T/C (dose: 100.0 mg/kg/injection, schedule: Q01DX005 (ip), vehicle: Klucel (hydroxypropylcellulose) (HPC), evaluated on day 30): 86, 111, 139 [5 of 6 alive], 140, 142, 148, 152, 155, 159, 161, 164, 166 (3×), 168, 170, 173, 174, 176, 177, 178, 179, 183, 184, 191, 199, 202, 208 % of control (2×) | T/C (dose: 100.0 mg/kg/injection, schedule: Q01DX005 (ip), vehicle: Klucel (hydroxypropylcellulose) (HPC), evaluated on day 35): 177 % of control | survivor count (dose: 100.0 mg/kg/injection, schedule: Q01DX005 (ip), vehicle: Klucel (hydroxypropylcellulose) (HPC)): 3 of 3 (2×) and 6 of 6 | T/C [1]: 86, 89, 92 (2×), 95, 99, 100, 101 (2×), 104 (2×), 111, 114, 116, 122, 125, 126, 137, 169, 171, 175, 191, 191 [2 of 3 alive], 193, 195, 202, 205, 208 (2×), 225, 288 % of control | survivor count [1]: 3 of 3 and 6 of 6 (2×) | T/C (dose: 100.0 mg/kg/injection, schedule: Q04DX002 (ip), vehicle: Klucel (hydroxypropylcellulose) (HPC)): 128 % of control | T/C (dose: 108.0 mg/kg/injection, schedule: Q04DX003 (ip), vehicle: Klucel (hydroxypropylcellulose) (HPC)): 142 % of control | T/C (dose: 108.0 mg/kg/injection, schedule: Q04DX003 (ip), vehicle: alkali diluted with saline): 149 % of control | survivor count (dose: 120.0 mg/kg/injection, schedule: Q01DX010 (ip), vehicle: saline): 6 of 6 | T/C (dose: 150.0 mg/kg/injection, schedule: Q04DX002 (ip), vehicle: Klucel (hydroxypropylcellulose) (HPC), evaluated on day 30): 98, 105, 107 (2×), 111, 112 (2×), 114, 119 (2×), 120, 121 (2×), 123 (2×), 125 (4×), 127, 131 (3×), 137, 138, 144, 153, 162 % of control | T/C (dose: 150.0 mg/kg/injection, schedule: Q04DX002 (ip), vehicle: Klucel (hydroxypropylcellulose) (HPC), evaluated on day 35): 139 % of control | survivor count (dose: 150.0 mg/kg/injection, schedule: Q04DX002 (ip), vehicle: Klucel (hydroxypropylcellulose) (HPC)): 3 of 3 | T/C (dose: 150.0 mg/kg/injection, schedule: Q04DX003 (ip), vehicle: Klucel (hydroxypropylcellulose) (HPC), evaluated on day 30): 104, 107, 110 (2×), 113 (2×), 120, 121 (2×), 125, 128, 129, 130, 131, 133, 134, 135, 138, 139, 143, 145, 148, 149, 152, 153 (2×), 158, 163, 169, 174 % of control | T/C (dose: 150.0 mg/kg/injection, schedule: Q04DX003 (ip), vehicle: Klucel (hydroxypropylcellulose) (HPC), evaluated on day 35): 171 % of control | survivor count (dose: 150.0 mg/kg/injection, schedule: Q04DX003 (ip), vehicle: Klucel (hydroxypropylcellulose) (HPC)): 1 of 3 | T/C (dose: 180.0 mg/kg/injection, schedule: Q04DX003 (ip), vehicle: Klucel (hydroxypropylcellulose) (HPC)): 149 % of control | T/C (dose: 200.0 mg/kg/injection, schedule: Q01DX001 (ip), vehicle: Klucel (hydroxypropylcellulose) (HPC)): 106, 108 (2×), 111, 113 (2×), 115 (2×), 118, 122, 123 (4×), 125, 127 (3×), 128, 129, 132 (2×), 133, 137, 139, 142 (3×), 145, 161 % of control | T/C (dose: 200.0 mg/kg/injection, schedule: Q01DX001 (ip), vehicle: steroid suspending solution): 129 % of control | T/C (dose: 200.0 mg/kg/injection, schedule: Q04DX002 (ip), vehicle: Klucel (hydroxypropylcellulose) (HPC)): 137 % of control | T/C [2]: 128 % of control | survivor count [2]: 6 of 6 | T/C (dose: 300.0 mg/kg/injection, schedule: Q04DX002 (ip), vehicle: Klucel (hydroxypropylcellulose) (HPC), evaluated on day 30): 104, 112, 122, 124, 126, 142, 146 (2×), 152 (2×), 156, 158, 160 (2×), 166, 168 (2×), 175, 179, 191 (2×), 194 (2×), 207, 208 (2×), 215, 238 % of control | T/C (dose: 300.0 mg/kg/injection, schedule: Q04DX002 (ip), vehicle: Klucel (hydroxypropylcellulose) (HPC), evaluated on day 35): 179 % of control | survivor count (dose: 300.0 mg/kg/injection, schedule: Q04DX002 (ip), vehicle: Klucel (hydroxypropylcellulose) (HPC)): 3 of 3 | T/C (dose: 300.0 mg/kg/injection, schedule: Q04DX003 (ip), vehicle: Klucel (hydroxypropylcellulose) (HPC), evaluated on day 30): 94, 112, 115, 116, 127, 138, 144, 152 (2×), 166 (3×), 169, 172, 174, 178, 179, 183, 186, 190, 198, 204 (2×), 205, 213, 221, 223 (2×), 225, 230, 239 % of control | T/C (dose: 300.0 mg/kg/injection, schedule: Q04DX003 (ip), vehicle: Klucel (hydroxypropylcellulose) (HPC), evaluated on day 35): 220 % of control | T/C (dose: 300.0 mg/kg/injection, schedule: Q04DX003 (ip), vehicle: Klucel (hydroxypropylcellulose) (HPC), evaluated on day 60): 91 and 129 % of control | survivor count (dose: 360.0 mg/kg/injection, schedule: Q04DX003 (ip), vehicle: Klucel (hydroxypropylcellulose) (HPC)): 8 of 8 | T/C [3]: 105, 116 (2×), 123, 127, 128, 132, 135, 137 (2×), 140, 141, 143 (2×), 147, 150 (2×), 153, 153 [2 of 3 alive], 154, 155, 161, 163, 173, 174, 177, 180, 186, 189 % of control | survivor count [3]: 3 of 6 | T/C (dose: 400.0 mg/kg/injection, schedule: Q04DX003 (ip), vehicle: Klucel (hydroxypropylcellulose) (HPC), evaluated on day 38): 171 % of control | T/C (dose: 400.0 mg/kg/injection, schedule: Q04DX003 (ip), vehicle: Klucel (hydroxypropylcellulose) (HPC), evaluated on day 46): 88 % of control | T/C (dose: 400.0 mg/kg/injection, schedule: Q04DX003 (ip), vehicle: Klucel (hydroxypropylcellulose) (HPC), evaluated on day 60): 92 and 235 % of control | survivor count (dose: 600.0 mg/kg/injection, schedule: Q04DX003 (ip), vehicle: Klucel (hydroxypropylcellulose) (HPC)): 7 of 8 | survivor count (dose: 1000.0 mg/kg/injection, schedule: Q04DX003 (ip), vehicle: Klucel (hydroxypropylcellulose) (HPC)): 3 of 8
